Results deposited as PubChem BioAssay AID1159578 (Peter MacCallum Cancer Centre, 2015)

Aim: 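siRNA pools altering how lymphatic endothelial cells close a scratch wound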 (primary screen)
Cells: human lymphatic endothelial cells
Reagents: siRNA pool against human genes, 40 nM
Duration: 48 h after transfection
Read-out: 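Cells stained with dye and imaged after a scratch; covered wound area and nuclei counted, duplicates averaged, migration set against mock wells and turned into a robust z-score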
Direction: migration robust z-score: higher = faster migration into the scratch; nuclei per well: higher = more cells in the well
Call rule: 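Migration changed when robust z exceeds 2 or falls below -2 and mean nuclei number is at least 3300; otherwise not called changed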
Calls: active = migration changed; inactive = no migration change, or too few cells
In all, the deposit lists about 18,000 reagents; this is a part drawn at random. In the full data, about 1,030 (5.7%) are marked active. 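Inactive calls also include pools with fewer than 3300 nuclei, whose migration was not assessed.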 The raw values are shown without normalisation. Further read-outs or replicates are left out here.

Depletion of GNS came out at: migration robust z-score -0.24; nuclei per well, duplicate mean 5682; inactive.
Depletion of MAP2K7 resulted in: migration robust z-score -1.82; nuclei per well, duplicate mean 3643; inactive.
CITED1 scored migration robust z-score 0.18; nuclei per well, duplicate mean 5192; inactive.
For CD109, the values are migration robust z-score -0.18; nuclei per well, duplicate mean 6344; inactive.
With knock-down of LINC02872, the screen gave migration robust z-score 1.86; nuclei per well, duplicate mean 5392; inactive.
Knock-down of DDAH2 gave: migration robust z-score -1.94; nuclei per well, duplicate mean 5018; inactive.
TTC23L showed migration robust z-score -1.53; nuclei per well, duplicate mean 5250; inactive.
TK2 scored migration robust z-score -0.68; nuclei per well, duplicate mean 4393; inactive.
Knock-down of TMEM39A came out at: migration robust z-score -0.57; nuclei per well, duplicate mean 5653; inactive.
For DMPK, the values are migration robust z-score -6.82; nuclei per well, duplicate mean 1724; inactive.
For FKBP8, the values are migration robust z-score 0.39; nuclei per well, duplicate mean 4325; inactive.
TMX4 showed migration robust z-score 0.21; nuclei per well, duplicate mean 5885; inactive.
P2RX4 scored migration robust z-score -0.21; nuclei per well, duplicate mean 4501; inactive.
After knock-down of TNFSF18, the screen gave migration robust z-score 0.48; nuclei per well, duplicate mean 7746; inactive.

Entries listed so far whose gene name starts with C or c (2):
CITED1: migration robust z-score = 0.18; nuclei per well, duplicate mean = 5192; call = inactive
CD109: migration robust z-score = -0.18; nuclei per well, duplicate mean = 6344; call = inactive
